## Primary screen of a compound library

Sequences of proteins named here, by UniProt entry; tags and fusion partners are left off.
UniProt E9BF75, entry or part of it: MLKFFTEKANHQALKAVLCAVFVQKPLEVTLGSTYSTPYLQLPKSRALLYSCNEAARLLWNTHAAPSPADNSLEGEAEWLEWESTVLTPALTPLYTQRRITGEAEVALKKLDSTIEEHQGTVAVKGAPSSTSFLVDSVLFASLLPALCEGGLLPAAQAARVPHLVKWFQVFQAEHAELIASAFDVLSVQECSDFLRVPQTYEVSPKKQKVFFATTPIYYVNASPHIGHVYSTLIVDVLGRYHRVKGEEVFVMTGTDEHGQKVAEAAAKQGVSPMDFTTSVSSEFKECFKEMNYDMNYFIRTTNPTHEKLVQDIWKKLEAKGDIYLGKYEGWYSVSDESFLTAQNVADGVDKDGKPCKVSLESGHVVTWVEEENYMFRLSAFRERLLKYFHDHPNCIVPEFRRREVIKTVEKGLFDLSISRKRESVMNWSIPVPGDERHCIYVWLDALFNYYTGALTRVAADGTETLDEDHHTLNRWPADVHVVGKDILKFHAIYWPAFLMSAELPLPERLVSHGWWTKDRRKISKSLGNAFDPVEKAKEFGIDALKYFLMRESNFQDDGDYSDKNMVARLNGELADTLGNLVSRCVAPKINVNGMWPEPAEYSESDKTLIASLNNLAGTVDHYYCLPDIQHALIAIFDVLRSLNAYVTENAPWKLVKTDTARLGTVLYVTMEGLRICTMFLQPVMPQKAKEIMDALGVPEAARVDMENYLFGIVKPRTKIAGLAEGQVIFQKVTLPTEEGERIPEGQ

The values are deposited in ChEMBL (CHEMBL3988442, “University of Dundee, Small-Polar-MMV Screening Library” (2021)).

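Primary screen of methionyl-tRNA synthetase; the read-out is not stated. Target: Methionyl-tRNA synthetase (putative), Leishmania donovani (UniProt E9BF75). The test concentration is not given. The values are filed as inhibition. Of about 68,000 compounds tested this way, about 24 (0.035%) reached 50% or more in at least one test.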

All values are in %. How 0% and 100% were set is not recorded. Most values in the screen are low, and negative values occur. This is an unselected part of the compounds tested.

| compound | Inhibition |
|---|---|
| `CN(C)C(=O)COC1COC2(CCN(S(C)(=O)=O)CC2)C1` (centres unmarked) | 7.744% |
| `Cn1c(Cn2ncc(N3CCCC3)cc2=O)nc2ccccc21` | 6.527% |
| `Cc1nnsc1C(=O)NCC1CCN(c2ccccn2)CC1` | 10.14% |
| `Cc1ccc(CC(=O)N2CCCC(c3n[nH]c4nccnc34)C2)cc1` (centres unmarked) | 15.62% |
| `COCCCC1(CO)CCCN(C(=O)c2cnc3c(c2)CCCC3)C1` (centres unmarked) | 8.362% |
| `O=c1cc(N2CCCCC2)cnn1CCCn1cccn1` | 6.812% |
| `C[C@@H](NC(=O)c1cccn1C)c1c(-c2ccc(Cl)cc2)noc1C(=O)O` | 13.74% |
| `CN(C)S(=O)(=O)N1CCN(c2ccnc(N3CCCC3)n2)CC1` | 8.889% |
| `O=C(O)c1cc(-c2ccoc2)cc(S(=O)(=O)NCc2ccccn2)c1` | 17.71% |
| `Cc1nc(CN2CCC3(CC2)CC(c2cccnc2)C(=O)N3C)cs1` (centres unmarked) | 11.48% |
| `CCN(c1ccc(C(=O)Nc2c(C)nn(C(C)C)c2C)cc1)C(C)C` | 8.511% |
| `CC(C(N)=O)N(C)Cc1ccccc1C(F)(F)F` (centres unmarked) | 6.587% |
| `O=C(NCC1CCCOC1)c1ccc(-c2ccccc2)[nH]c1=O` (centres unmarked) | 13.89% |
| `COCc1nccc(C2CCCN(Cc3ccccc3C#N)C2)n1` (centres unmarked) | 25.42% |
| `O=C(Nc1ccc(F)cc1-c1nc(C2CC2)no1)N1CC[C@@H](O)C1` | 20.68% |
| `O=C(c1ccco1)N1CCC2(CC1)C(=O)NCCN2CC1CC1` | 2.146% |
| `Cc1cc(-c2nn(C)c(Cl)c2CN2CCOCC2CC(N)=O)no1` (centres unmarked) | 3.846% |
| `CC(=O)N1CCN(c2cc(N3CCOCC3)cnn2)CC1` | 14.37% |
| `Cc1cc(F)cc2c(N3CCS(=O)(=O)CC3)c(C#N)cnc12` | 3.495% |
| `CC(CN1CCOCC1)NC(=O)NCc1ccoc1` (centres unmarked) | 0.5305% |
| `CCNC(=O)N1CCC(NC(=O)NCCc2cccc(C)c2)C1` (centres unmarked) | 7.829% |
| `O=C1CC(C(=O)Nc2nnc(-c3cccs3)[nH]2)c2ccccc2N1` (centres unmarked) | 11.08% |
| `O=C(COC1CCCC1)N1CC[C@H]2OCC[C@@]2(COCC2CC2)C1` | 13.77% |
| `O=C(CCc1nc2cccnc2[nH]1)Nc1ccc2c(c1)OCC(=O)N2` | 15.33% |
| `Cc1nn(C)c(C)c1CN(C(=O)c1cnc(O)cn1)C(C)C` | 12.53% |
| `CCc1nsc(N2CCN(CC(=O)NCc3cccnc3)CC2)n1` | 8.675% |
| `Cc1[nH]c(=O)[nH]c(=O)c1CN1CCCC(CCc2ccc(F)cc2F)C1` (centres unmarked) | 12.1% |
| `Cc1ccc(CN2CCCC23CCN(S(=O)(=O)c2ccccc2)C3)o1` (centres unmarked) | 16.5% |
| `CCOc1ccc(C#N)cc1NCC(=O)OC` | 22.78% |
| `CCOCCC(=O)N(C)CC1Cc2ccccc2CN1C` (centres unmarked) | 8.71% |
| `Fc1ccc(CNCCn2cccn2)c(Cl)c1` | 4.715% |
| `CC1(C)OC(=O)N(CCCOc2ccc(F)cc2)C1=O` | 19.81% |
| `COc1ncccc1C(=O)N1CC[C@H]2C[C@@H](c3nccs3)O[C@@H]2C1` | 21.04% |
| `CCSCc1cccc(NC2CCN(C)C2=O)c1` (centres unmarked) | 5.575% |
| `Cc1cc2n(n1)CC(CNCc1cnn(C)c1)CN2` (centres unmarked) | 7.459% |
| `Cc1cc(CN2CCN(C(=O)C(C(C)C)n3cncn3)CC2)on1` (centres unmarked) | 12.81% |
| `COCCC(=O)N1CCCC([C@@H]2C[C@H](C(F)F)n3ncnc3N2)C1` (some centres unmarked) | 12.46% |
| `Cc1ccccc1C(=O)N1CC(C(=O)NCC2CC2)C2(CCOCC2)C1` (centres unmarked) | 7.801% |
| `CN1CCN(Cc2cnc3n2CCN(C(=O)c2ccncc2)C3)CC1` | 7.302% |
| `CCCN(Cc1ccc(S(=O)(=O)NC)cc1)Cc1ccccc1OC` | 13.19% |
| `CCOC(=O)N1CCCn2nc(C(=O)NCCN(C)C)cc2C1` | 7.801% |
| `Cc1nc(CN2CCCC(c3nccs3)C2)cs1` (centres unmarked) | 19.94% |
| `CCCc1c(C(=O)N2CCN(c3nccc(OC)n3)CC2)cnn1C` | 7.692% |
| `NC(=O)c1cncc(N2CCN(Cc3ccc(F)cc3Cl)CC2)n1` | 3.804% |
| `CN(C)C(=O)CN1CCN(Cc2coc(-c3cccc(F)c3)n2)CC1` | 3.704% |
| `OCCN(Cc1cccnc1)c1cnc2ccccc2n1` | 17.68% |
| `CCc1ncc2c(n1)CN(Cc1cccc(OCC(N)=O)c1)CC2` | 17.32% |
| `CN1CCC(N(C)C(=O)c2cnn(-c3cc(F)ccc3F)c2N)CC1` | 1.944% |
| `CCS(=O)(=O)N1CC[C@H]2OCC[C@@]2(c2nnc(C)o2)C1` | 13.14% |
| `CC(=O)NCC(=O)NCC1(O)CCN(c2cnccn2)C1` (centres unmarked) | 8.1% |
| `CSc1nccc(NCc2cc3n(n2)CCCN(C(=O)C2CCC2)C3)n1` | 3.681% |
| `CCOCCOC(C)C(=O)NCc1ccc(N2CCCCC2)cc1` (centres unmarked) | 5.442% |
| `CC(C)NC(=O)N1C[C@H]2C[C@H](C(=O)N3CCCC3)[C@@H](C1)O2` | 6.162% |
| `O=C(NCC1CCOC1)c1cc(-c2ccc(F)cc2)[nH]n1` (centres unmarked) | 10.03% |
| `Cn1ccnc1C(=O)N1CCC2(CCN2Cc2ccc(F)cc2)C1` (centres unmarked) | 3.519% |
| `Cn1c2ccccc2c2ncn(CCCN3CCOCC3)c(=O)c21` | 1.355% |
| `COC(C)(CNS(=O)(=O)c1cnn(C)c1)c1ccccc1F` (centres unmarked) | 8.257% |
| `CC(C)(NC(=O)Cc1ccccc1F)C(=O)O` | 9.841% |
| `CCc1nc(CC(=O)N2CCCCC2Cn2cccn2)cs1` (centres unmarked) | 7.803% |
| `CC(C)n1ccnc1CN1CCCN(C(=O)c2cc(Cl)c[nH]2)CC1` | 10.43% |
| `COc1ccc(F)c(-c2cc(O)nc(N)n2)c1` | 8.014% |
| `CSCc1noc(CNC(=O)C2CCN(C(=O)C3CCC3)CC2)n1` | 9.137% |
| `CN(Cc1ccccc1)CC1(O)CCCN(CCC2CCCCC2)C1=O` (centres unmarked) | 9.384% |
| `CN1CCC(Cc2nc(-c3cnccn3)n(C3CCS(=O)(=O)C3)n2)CC1` (centres unmarked) | 17.39% |
| `CCN(C)c1ccc(CNS(=O)(=O)C2CCOCC2)cc1F` | 5.385% |
| `O=C(c1cscn1)N1CCc2ncnc(-c3cccnc3)c2CC1` | 6.011% |
| `Cc1occc1C(=O)N1CCC2(CCN(Cc3nccs3)CC2)C1` | 9.14% |
| `COCCNC(=O)c1cc(C)nc(C2CCN(C)CC2)n1` | 13.12% |
| `COc1ccc(C(=O)N2CCCC2c2cnn(C)c2)cn1` (centres unmarked) | 0.2793% |
| `Cn1cc(N2CCCC(Nc3ccc4c(c3)NC(=O)CC4)C2=O)cn1` (centres unmarked) | 12.41% |
| `CCn1nnc2c1CCN(C(=O)c1ccc3c(c1)OCO3)C2COC` (centres unmarked) | -0.2506% |
| `O=C(CSCC1CC1)N1CCCC2(CCC(=O)N(CC3CC3)C2)C1` (centres unmarked) | 11.68% |
| `Cc1cc(CN(C)C(=O)NCc2ccco2)no1` | 10.13% |
| `COCCCN1CCC(CNc2nccc(-c3cnn(C)c3)n2)C1` (centres unmarked) | 8.904% |
| `COc1ccc(S(=O)(=O)NCCC(O)c2ccoc2)c(C)c1` (centres unmarked) | 7.914% |
| `O=C1CC2(CCN(Cc3ncc[nH]3)CC2)CN1Cc1cc(F)cc(F)c1` | 10.87% |
| `Cc1cccc(NC(=O)c2sccc2C)n1` | 2.817% |
| `c1csc(CCNC2CCc3ncnn3C2)c1` (centres unmarked) | 13.86% |
| `O=C(CN1CCC2(CCCN(CCO)C2=O)C1)NCCc1ccccc1` (centres unmarked) | 0% |
| `COc1ccc2[nH]nc(CN3CCC(C(=O)N4CCCCC4)CC3)c2c1` | 8.533% |
| `Cc1ccc2cccc(S(=O)(=O)N(C)CC3CCN(C)CC3)c2n1` | 17.2% |
| `CCC(C)NC(=O)NCCC(=O)N1CCN(c2ccccn2)CC1` (centres unmarked) | 19.15% |
| `CCN1C(=O)CC(c2ccccc2)C12CCN(c1ncc(C)cn1)CC2` (centres unmarked) | 10.14% |
| `CC(=O)c1cc(CC(=O)NCc2ccsc2)cs1` | 7.143% |
| `Cc1n[nH]c(C)c1-c1cc(-c2ccc[nH]2)nc(N)c1C#N` | 19.89% |
| `CCc1nc(C(=O)N2CCN(C(=O)CCc3ccccc3)CC2)c[nH]1` | 2.787% |
| `CC(=O)Nn1c(C)cc(CN2CCC(c3ccncc3)CC2)c1C` | 17.91% |
| `CCn1cc2c(n1)CN(S(=O)(=O)Cc1ccccc1)CC2COC` (centres unmarked) | 0.3484% |

The last 11 entries again:

compound,Inhibition
c1csc(CCNC2CCc3ncnn3C2)c1 (centres unmarked),13.86%
O=C(CN1CCC2(CCCN(CCO)C2=O)C1)NCCc1ccccc1 (centres unmarked),0%
COc1ccc2[nH]nc(CN3CCC(C(=O)N4CCCCC4)CC3)c2c1,8.533%
Cc1ccc2cccc(S(=O)(=O)N(C)CC3CCN(C)CC3)c2n1,17.2%
CCC(C)NC(=O)NCCC(=O)N1CCN(c2ccccn2)CC1 (centres unmarked),19.15%
CCN1C(=O)CC(c2ccccc2)C12CCN(c1ncc(C)cn1)CC2 (centres unmarked),10.14%
CC(=O)c1cc(CC(=O)NCc2ccsc2)cs1,7.143%
Cc1n[nH]c(C)c1-c1cc(-c2ccc[nH]2)nc(N)c1C#N,19.89%
CCc1nc(C(=O)N2CCN(C(=O)CCc3ccccc3)CC2)c[nH]1,2.787%
CC(=O)Nn1c(C)cc(CN2CCC(c3ccncc3)CC2)c1C,17.91%
CCn1cc2c(n1)CN(S(=O)(=O)Cc1ccccc1)CC2COC (centres unmarked),0.3484%